Measured values as given in publication PMC8999035.
No constants are given. Whether binding was seen depends on the method and setting. Some entries that bind do so weakly or less than the wild type.

Target: Rat TRPV2 full-length (FL), C-terminal GFP and 8xHis tag (rat) (UniProt Q9WUD2)
Experiment: far-Western, overlay or dot blot; slot blot: purified FL rat TRPV2 or ARD placed on nitrocellulose membranes, blocked with 2% BSA in 0.1 M PBS pH 7.4, incubated with rat brain lysate (1 ug/mL in blocking buffer, 1 h, RT; the legend says 0-10 ug of lysate), washed in TBS + 0.1% Tween, immunoblot against Opalin, NTM and PLP1; only the target purified

binding: binds
B1: Proteolipid protein 1 (protein, UniProt P60203 1-277)
chain: MGLLECCARCLVGAPFASLVATGLCFFGVALFCGCGHEALTGTEKLIETYFSKNYQDYEYLINVIHAFQYVIYGTASFFFLYGALLLAEGFYTTGAVRQIFGDYKTTICGKGLSATVTGGQKGRGSRGQHQAHSLERVCHCLGKWLGHPDKFVGITYALTVVWLLVFACSAVPVYIYFNTWTTCQSIAFPSKTSASIGSLCADARMYGVLPWNAFPGKVCGSNLLSICKTAEFQMTFHLFIAAFVGAAATLVSLLTFMIAATYNFAVLKLMGRGTKF
